For some of these results: No signal at the amounts used counts as a negative. For some of these results: At least one verdict rests on a figure or table, not on a statement of the authors. For some of these results: The exact form of at least one protein or probe is not confirmed. For some of these results: Where a protein sequence is shown, tags need not be part of it. For some of these results: Where cells or extracts were used, other partners may take part.
Legend:
HMGB1 [1] = target: T1, HMGB1 (UniProt P63158); test: SPR; conditions: HMGB1 immobilized on CM5 chip, DNA 0-10 uM; phosphorothioate throughout; 5' C6 amino linker; SPR: Biacore T200, CM5 chip with immobilized HMGB1, buffer not stated; recombinant protein; single-stranded …
T1 sequence (looked up, limits assumed): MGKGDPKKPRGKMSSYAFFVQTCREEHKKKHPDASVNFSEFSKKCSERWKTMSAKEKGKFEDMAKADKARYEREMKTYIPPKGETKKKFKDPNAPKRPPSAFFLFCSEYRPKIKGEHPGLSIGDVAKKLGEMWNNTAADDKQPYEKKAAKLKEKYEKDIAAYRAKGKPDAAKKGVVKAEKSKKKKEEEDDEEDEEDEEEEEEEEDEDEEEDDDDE

HMGB1 [2] = target: T1, HMGB1; test: pull-down; conditions: Bead pull-down: PBS (pH 7), room temperature, 1-2 h, western blot, recombinant protein
[3] = target: T2, HMGB1 from LPS-stimulated RAW 264.7 supernatant (UniProt P63158); test: pull-down; conditions: Bead pull-down: PBS (pH 7), room temperature, 1-2 h, western blot, protein in an extract
T2 sequence (looked up, limits assumed): T1 sequence (looked up, limits assumed)

[4] = target: HMGB1 from colitis mouse feces (Mus musculus) (UniProt P63158); test: pull-down; conditions: fecal extract; phosphorothioate throughout; 5' C6 amino linker; Bead pull-down: PBS (pH 7), room temperature, 1-2 h, western blot; protein in an extract; single-stranded DNA
[5] = tested on: HMGB1, redox-modified forms (H2O2 or DTT treated); test: pull-down; conditions: three redox forms; phosphorothioate throughout; 5' C6 amino linker; Bead pull-down: PBS (pH 7), room temperature, 1-2 h, western blot; recombinant protein; single-stranded DNA
[6] = tested on: Histone H3 (Homo sapiens); test: pull-down; conditions: 0-3 ug H3, 5 ul beads; phosphorothioate throughout; 5' C6 amino linker; Bead pull-down: PBS (pH 7), room temperature, 1-2 h, western blot; commercial protein; single-stranded DNA
TNF (Homo sapiens) = TNF (Homo sapiens) (UniProt P01375); test: pull-down; conditions: phosphorothioate throughout, 5' C6 amino linker, Bead pull-down: PBS (pH 7), room temperature, 1-2 h, western blot, commercial protein, single-stranded DNA
[7] = target: T3, HMGB1 from septic (CLP) mouse serum (Mus musculus) (UniProt P63158); test: pull-down; conditions: serum; phosphorothioate throughout; 5' C6 amino linker; Bead pull-down: PBS (pH 7), room temperature, 1-2 h, western blot; protein in an extract; single-stranded DNA
T3 sequence (looked up, limits assumed): T1 sequence (looked up, limits assumed)

[8] = DNA on sepharose beads, >90% of HMGB1 captured, phosphorothioate throughout, 5' C6 amino linker, single-stranded DNA
[9] = pH 1 or 2 (HCl), phosphorothioate throughout, 5' C6 amino linker, single-stranded DNA
[10] = 10x concentrated supernatant, phosphorothioate throughout, 5' C6 amino linker, single-stranded DNA

Sequence | Kd (HMGB1 [1]) [nM] | binding result (HMGB1 [2]; [8]) | binding result (HMGB1 [2]; [9]) | binding result [3, 10] | binding result [4] | binding result [5] | binding result [6] | binding result (TNF (Homo sapiens)) | binding result (HMGB1 [2]; DNA on sepharose beads, >90% of HMGB1 captured, phosphodiester, 5' C6 amino linker on strand 1, folded or branched DNA) | binding result (HMGB1 [2]; pH 1 or 2 (HCl), binding capacity not retained, phosphodiester, 5' C6 amino linker on strand 1, folded or branched DNA) | binding result ([3]; cell supernatant, phosphodiester, 5' C6 amino linker on strand 1, folded or branched …) | binding result (HMGB1 [2]; DNA on sepharose beads, phosphodiester, 5' C6 amino linker on strand 1) | binding result (HMGB1 [2]; beads pre-exposed to DNase I 40 ng/ml, phosphorothioate throughout, 5' C6 amino linker, single-stranded DNA) | binding result [7] | binding result (TNF (Homo sapiens); 200 ng TNF)
AGCATGAGGTTCCTGATGCT [S1 (12-20.1; B1 beads)] | 5 | binds | binds | binds | binds | binds | no binding | no binding |  |  |  |  |  |  | 
CCCTATAACCCCTGCATTGAATTCCAGTCTGATAA / GTAGTCGTGATAGGTGCAGGGGTTATAGGG / AACAGTAGCTCTTATTCGAGCTCGCGCCCTATCACGACTA / TTTATCAGACTGGAATTCAAGCGCGAGCTCGAATAAGAGCTACTGT [S3 (12-4WJ.1; B3 beads)] |  |  |  |  |  |  |  |  | binds | no binding | no binding |  |  |  | 
CTTGCATTGAAATTTCTTTCC / GGAAAGAAACAATGCAAG [S4 (12-DP.1; B4 beads)] |  |  |  |  |  |  |  |  |  |  |  | no binding |  |  | 
TGGATGAGCTTCCTGATGTC [S2 (12-20.2; B2 beads)] | 5 | binds | binds | binds | binds | binds | no binding |  |  |  |  |  | binds | binds | no binding

Reference: article PMC4134190
